Test: general procedure: peptide synthesis; EDC / 1-hydroxy-7-azabenzotriazole / N-methylmorpholine
Conditions: cyclisation step, TFA salt, cyclic, sequence written open

## Thia-V(d)AAAAY
Condition A
  final HPLC purity: >90%
Condition B
  final HPLC purity: >91%
Condition C
  final HPLC purity: >99%
  cyclisation yield: 22.3%

Source: patent US9169295B2 (Bristol-Myers Squibb Company, priority 2010, dated 2015)
